Some results were stated once for a whole list of compounds, not compound by compound.
Key:
hNaV1.3 channels = target: T1, hNaV1.3 channels (Homo sapiens, UniProt Q9NY46); assay: Use-dependent inhibition of NaV1.3 currents, IonWorks Quattro planar array electrophysiology; assay type: cell-based; conditions: for pUD15 against NaV1.3: use-dependent, concentration producing 15% inhibition, 10th versus 1st depolarizing pulse, 10 Hz; for use-dependent potency against NaV1.3: result in words
T1 construct: expressed in transfected cells

Amino acid sequences for entries named in this document (tags omitted).
UniProt Q9NY46, whole entry: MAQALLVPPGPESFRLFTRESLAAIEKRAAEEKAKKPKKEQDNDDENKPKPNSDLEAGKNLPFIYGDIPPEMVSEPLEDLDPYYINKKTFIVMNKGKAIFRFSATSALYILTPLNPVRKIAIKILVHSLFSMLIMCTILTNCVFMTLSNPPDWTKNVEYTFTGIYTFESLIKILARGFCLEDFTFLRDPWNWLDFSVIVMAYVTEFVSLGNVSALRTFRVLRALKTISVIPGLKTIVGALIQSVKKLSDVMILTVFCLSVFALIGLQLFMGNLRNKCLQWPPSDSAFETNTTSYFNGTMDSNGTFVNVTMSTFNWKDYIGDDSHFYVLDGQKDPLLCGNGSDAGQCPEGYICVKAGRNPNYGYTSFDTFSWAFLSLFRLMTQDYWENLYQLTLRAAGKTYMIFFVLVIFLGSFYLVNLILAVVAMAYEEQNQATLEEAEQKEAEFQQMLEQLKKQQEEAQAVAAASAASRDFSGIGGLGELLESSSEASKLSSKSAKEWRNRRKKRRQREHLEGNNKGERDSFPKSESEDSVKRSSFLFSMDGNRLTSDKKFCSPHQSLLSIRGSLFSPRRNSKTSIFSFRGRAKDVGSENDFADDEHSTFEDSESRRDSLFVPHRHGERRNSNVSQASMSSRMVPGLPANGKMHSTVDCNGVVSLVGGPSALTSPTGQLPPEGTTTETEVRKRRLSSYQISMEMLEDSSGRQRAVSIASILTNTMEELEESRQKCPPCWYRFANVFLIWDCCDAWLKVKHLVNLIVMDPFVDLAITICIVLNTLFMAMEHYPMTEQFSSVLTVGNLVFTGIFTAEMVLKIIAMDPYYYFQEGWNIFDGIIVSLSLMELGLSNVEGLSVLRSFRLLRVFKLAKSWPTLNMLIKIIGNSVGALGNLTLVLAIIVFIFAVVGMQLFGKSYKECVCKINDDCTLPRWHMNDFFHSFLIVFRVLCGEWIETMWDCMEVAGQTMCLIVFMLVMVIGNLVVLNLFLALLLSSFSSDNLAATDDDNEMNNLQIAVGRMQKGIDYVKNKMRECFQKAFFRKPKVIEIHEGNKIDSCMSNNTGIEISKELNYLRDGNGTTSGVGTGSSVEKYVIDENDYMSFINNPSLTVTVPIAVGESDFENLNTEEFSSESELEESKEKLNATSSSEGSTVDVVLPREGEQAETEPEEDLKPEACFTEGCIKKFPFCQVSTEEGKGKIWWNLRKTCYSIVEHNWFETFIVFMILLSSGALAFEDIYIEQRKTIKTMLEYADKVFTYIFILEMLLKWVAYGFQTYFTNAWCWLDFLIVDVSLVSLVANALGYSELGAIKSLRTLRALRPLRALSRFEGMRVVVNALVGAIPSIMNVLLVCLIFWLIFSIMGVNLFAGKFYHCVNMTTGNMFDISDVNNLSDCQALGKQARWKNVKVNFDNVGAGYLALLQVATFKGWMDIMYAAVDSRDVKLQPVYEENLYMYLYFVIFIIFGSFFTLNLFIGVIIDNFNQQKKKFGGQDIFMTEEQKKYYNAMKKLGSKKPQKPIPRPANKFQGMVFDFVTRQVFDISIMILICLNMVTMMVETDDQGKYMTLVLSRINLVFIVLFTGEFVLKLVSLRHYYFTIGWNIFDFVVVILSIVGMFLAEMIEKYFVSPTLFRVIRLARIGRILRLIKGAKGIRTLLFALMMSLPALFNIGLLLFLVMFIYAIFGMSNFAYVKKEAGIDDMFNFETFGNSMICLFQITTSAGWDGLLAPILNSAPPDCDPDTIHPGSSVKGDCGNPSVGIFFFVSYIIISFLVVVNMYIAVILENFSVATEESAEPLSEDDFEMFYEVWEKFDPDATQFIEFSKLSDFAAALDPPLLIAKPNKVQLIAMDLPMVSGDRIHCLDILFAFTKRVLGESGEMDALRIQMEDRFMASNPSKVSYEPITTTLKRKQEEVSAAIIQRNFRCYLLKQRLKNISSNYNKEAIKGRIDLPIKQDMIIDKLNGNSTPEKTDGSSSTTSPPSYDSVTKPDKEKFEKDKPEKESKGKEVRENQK
UniProt Q15858, whole entry: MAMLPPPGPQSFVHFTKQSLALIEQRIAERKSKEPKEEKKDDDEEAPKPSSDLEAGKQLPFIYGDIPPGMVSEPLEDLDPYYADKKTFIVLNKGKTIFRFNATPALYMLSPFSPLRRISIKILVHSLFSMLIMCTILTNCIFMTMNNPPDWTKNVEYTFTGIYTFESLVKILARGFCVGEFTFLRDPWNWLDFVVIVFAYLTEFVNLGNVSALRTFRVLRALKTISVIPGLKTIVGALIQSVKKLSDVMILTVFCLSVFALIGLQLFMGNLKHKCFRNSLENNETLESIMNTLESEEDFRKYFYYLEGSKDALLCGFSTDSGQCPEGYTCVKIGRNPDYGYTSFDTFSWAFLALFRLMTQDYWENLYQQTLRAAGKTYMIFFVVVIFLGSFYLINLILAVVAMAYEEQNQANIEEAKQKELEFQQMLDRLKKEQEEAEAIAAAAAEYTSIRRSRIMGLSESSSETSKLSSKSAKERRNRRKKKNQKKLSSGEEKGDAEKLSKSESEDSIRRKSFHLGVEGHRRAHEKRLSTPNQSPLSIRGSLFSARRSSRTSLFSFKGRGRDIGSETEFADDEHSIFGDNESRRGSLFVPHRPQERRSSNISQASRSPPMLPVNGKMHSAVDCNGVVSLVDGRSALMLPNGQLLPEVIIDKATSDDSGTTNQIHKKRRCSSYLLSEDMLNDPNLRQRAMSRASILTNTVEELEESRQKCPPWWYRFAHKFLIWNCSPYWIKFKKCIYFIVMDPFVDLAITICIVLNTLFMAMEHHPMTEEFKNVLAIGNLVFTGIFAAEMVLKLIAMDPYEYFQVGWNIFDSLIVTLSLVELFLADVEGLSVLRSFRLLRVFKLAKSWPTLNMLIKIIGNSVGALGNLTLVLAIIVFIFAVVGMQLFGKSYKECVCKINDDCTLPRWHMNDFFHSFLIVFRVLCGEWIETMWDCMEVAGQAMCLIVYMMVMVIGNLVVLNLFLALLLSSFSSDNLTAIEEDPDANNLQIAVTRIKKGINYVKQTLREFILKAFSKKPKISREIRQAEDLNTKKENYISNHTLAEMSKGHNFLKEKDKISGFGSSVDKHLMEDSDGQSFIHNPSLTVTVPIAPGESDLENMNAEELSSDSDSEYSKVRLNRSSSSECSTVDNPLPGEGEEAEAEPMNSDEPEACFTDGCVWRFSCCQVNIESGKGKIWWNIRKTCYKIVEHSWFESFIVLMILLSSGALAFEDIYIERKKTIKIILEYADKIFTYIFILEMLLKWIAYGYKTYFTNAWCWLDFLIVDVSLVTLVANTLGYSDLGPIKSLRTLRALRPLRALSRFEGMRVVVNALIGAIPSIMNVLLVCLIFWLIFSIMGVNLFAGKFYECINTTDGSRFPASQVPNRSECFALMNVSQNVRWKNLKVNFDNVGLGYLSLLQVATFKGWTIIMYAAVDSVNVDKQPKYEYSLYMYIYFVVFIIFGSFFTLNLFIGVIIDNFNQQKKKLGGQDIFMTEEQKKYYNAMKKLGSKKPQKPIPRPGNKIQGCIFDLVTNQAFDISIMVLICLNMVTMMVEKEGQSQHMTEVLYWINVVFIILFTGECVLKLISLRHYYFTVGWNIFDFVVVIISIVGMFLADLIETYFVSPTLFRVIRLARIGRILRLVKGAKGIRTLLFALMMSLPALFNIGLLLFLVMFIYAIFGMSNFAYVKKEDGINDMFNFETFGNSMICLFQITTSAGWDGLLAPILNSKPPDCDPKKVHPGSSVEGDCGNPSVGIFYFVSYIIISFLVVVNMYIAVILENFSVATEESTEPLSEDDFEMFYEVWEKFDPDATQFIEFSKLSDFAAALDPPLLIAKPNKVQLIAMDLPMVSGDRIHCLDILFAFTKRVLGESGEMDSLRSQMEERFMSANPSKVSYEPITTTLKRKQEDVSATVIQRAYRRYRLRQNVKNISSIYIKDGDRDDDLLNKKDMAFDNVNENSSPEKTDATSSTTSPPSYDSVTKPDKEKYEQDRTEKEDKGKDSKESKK

NaV 1.7 = NaV 1.7 (Homo sapiens, UniProt Q15858); assay: Use-dependent inhibition of NaV1.7 currents, IonWorks Quattro planar array electrophysiology; assay type: cell-based; conditions: for pUD15 against NaV1.7: use-dependent, concentration producing 15% inhibition, 10th versus 1st depolarizing pulse, 10 Hz; for use-dependent potency against NaV1.7: result in words

Compound	pUD15 against NaV1.3 (hNaV1.3 channels)	pUD15 against NaV1.7 (NaV 1.7)	use-dependent potency against NaV1.7 (NaV 1.7)	use-dependent potency against NaV1.3 (hNaV1.3 channels)
CCN(Cc1cccc(OCc2ccccc2)c1)[C@H]1CCN(c2ncccc2C(=O)OC(C)C)C1 [Example 178]	5-5.99	5-5.99	–	–
CCN(Cc1cccc(Oc2ccccc2)c1)[C@H]1CCN(c2ncccc2C(=O)OC(C)C)C1 [Example 182]	5-5.99	5-5.99	–	–
CCN(Cc1ccc(Oc2ccc(C#N)cc2)cc1)[C@H]1CCN(c2ncccc2C(=O)OC(C)C)C1 [Example 184]	5-5.99	5-5.99	–	–
CCN(Cc1ccc(Oc2ccc(OC)cc2)cc1)[C@H]1CCN(c2ncccc2C(=O)OC(C)C)C1 [Example 185]	4-4.99	4-4.99	–	–
CC(C)OC(=O)c1cccnc1N1CCN(Cc2ccc(COc3cccc(OC(F)(F)F)c3)cc2)CC1 [Example 194, 1-methylethyl 2-[4-({4-[({3-[(trifluoromethyl)oxy]phenyl}oxy)methyl]phenyl}methyl)-1-piperazinyl]-3-pyridinecarboxylate]	4-4.99	–	inactive	–
CC(C)OC(=O)c1cccnc1N1CCN(Cc2ccc(COc3ccccc3C(F)(F)F)cc2)CC1 [Example 198, 1-methylethyl 2-(4-{[4-({[2-(trifluoromethyl)phenyl]oxy}methyl)phenyl]methyl}-1-piperazinyl)-3-pyridinecarboxylate]	–	4-4.99	–	inactive
CC(C)OC(=O)c1cccnc1N1CCN(Cc2ccc(COc3ccc(Cl)cc3Cl)cc2)CC1 [Example 200, 1-methylethyl 2-{4-[(4-{[(2,4-dichlorophenyl)oxy]methyl}phenyl)methyl]-1-piperazinyl}-3-pyridinecarboxylate]	4-4.99	–	inactive	–
Cc1ccccc1OCc1ccc(CN2CCN(c3ncccc3C(=O)OC(C)C)CC2)cc1 [Example 201, 1-methylethyl 2-{4-[(4-{[(2-methylphenyl)oxy]methyl}phenyl)methyl]-1-piperazinyl}-3-pyridinecarboxylate]	–	–	inactive	inactive
COc1cccc(OCc2cccc(CN3CCN(c4ncccc4C(=O)OC(C)C)CC3)c2)c1 [Example 206, 1-methylethyl 2-(4-{[3-({[3-(methyloxy)phenyl]oxy}methyl)phenyl]methyl}-1-piperazinyl)-3-pyridinecarboxylate]	5-5.99	5-5.99	–	–
CC(C)OC(=O)c1cccnc1N1CCN(Cc2cccc(COc3c(F)cccc3F)c2)CC1 [Example 207, 1-methylethyl 2-{4-[(3-{[(2,6-difluorophenyl)oxy]methyl}phenyl)methyl]-1-piperazinyl}-3-pyridinecarboxylate]	5-5.99	4-4.99	–	–
CC(C)OC(=O)c1cccnc1N1CCN(Cc2cccc(COc3ccc(F)c(F)c3)c2)CC1 [Example 208, 1-methylethyl 2-{4-[(3-{[(3,4-difluorophenyl)oxy]methyl}phenyl)methyl]-1-piperazinyl}-3-pyridinecarboxylate]	4-4.99	4-4.99	–	–
CC(C)OC(=O)c1cccnc1N1CCN(Cc2cccc(COc3ccc(C(C)(C)C)cc3)c2)CC1 [Example 210, 1-methylethyl 2-(4-{[3-({[4-(1,1-dimethylethyl)phenyl]oxy}methyl)phenyl]methyl}-1-piperazinyl)-3-pyridinecarboxylate]	4-4.99	4-4.99	–	–
COc1ccc(OCc2cccc(CN3CCN(c4ncccc4C(=O)OC(C)C)CC3)c2)cc1 [Example 211, 1-methylethyl 2-(4-{[3-({[4-(methyloxy)phenyl]oxy}methyl)phenyl]methyl}-1-piperazinyl)-3-pyridinecarboxylate]	5-5.99	5-5.99	–	–
COc1cc(OC)cc(OCc2cccc(CN3CCN(c4ncccc4C(=O)OC(C)C)CC3)c2)c1 [Example 214, 1-methylethyl 2-(4-{[3-({[3,5-bis(methyloxy)phenyl]oxy}methyl)phenyl]methyl}-1-piperazinyl)-3-pyridinecarboxylate]	5-5.99	5-5.99	–	–
Cc1ccc(OCc2cccc(CN3CCN(c4ncccc4C(=O)OC(C)C)CC3)c2)cc1 [Example 218, 1-methylethyl 2-{4-[(3-{[(4-methylphenyl)oxy]methyl}phenyl)methyl]-1-piperazinyl}-3-pyridinecarboxylate]	4-4.99	4-4.99	–	–
CC(C)OC(=O)c1cccnc1N1CCN(Cc2cccc(COc3ccc(F)cc3)c2)CC1 [Example 219, 1-methylethyl 2-{4-[(3-{[(4-fluorophenyl)oxy]methyl}phenyl)methyl]-1-piperazinyl}-3-pyridinecarboxylate]	5-5.99	4-4.99	–	–

Compound	pUD15 against NaV1.3 (hNaV1.3 channels)	pUD15 against NaV1.7 (NaV 1.7)	use-dependent potency against NaV1.7 (NaV 1.7)	use-dependent potency against NaV1.3 (hNaV1.3 channels)
CCN(Cc1ccc(CN2CCN(c3ncccc3C(=O)OC(C)C)CC2)cc1)Cc1ccc(C)s1 [Example 224, 1-methylethyl 2-(4-{[4-({ethyl[(5-methyl-2-thienyl)methyl]amino}methyl)phenyl]methyl}-1-piperazinyl)-3-pyridinecarboxylate]	5-5.99	5-5.99	–	–
CCN(Cc1ccc(CN2CCN(c3ncccc3C(=O)OC(C)C)CC2)cc1)Cc1cccc(OC)c1 [Example 227, 1-methylethyl 2-[4-({4-[(ethyl{[3-(methyloxy)phenyl]methyl}amino)methyl]phenyl}methyl)-1-piperazinyl]-3-pyridinecarboxylate]	5-5.99	5-5.99	–	–
COC(=O)c1ccc(CN2CCN(c3nccc(C)c3C(=O)OC(C)C)CC2)cc1 [Example 230, 1-methylethyl 4-methyl-2-[4-({4-[(methyloxy)carbonyl]phenyl}methyl)-1-piperazinyl]-3-pyridinecarboxylate]	5-5.99	5-5.99	–	–
Cc1ccnc(N2CCN(Cc3c(C)noc3C)CC2)c1C(=O)OC(C)C [Example 243, 1-methylethyl 2-{4-[(3,5-dimethyl-4-isoxazolyl)methyl]-1-piperazinyl}-4-methyl-3-pyridinecarboxylate]	5-5.99	5-5.99	–	–
CC(=O)Nc1ccc(CN2CCN(c3nccc(C)c3C(=O)OC(C)C)CC2)cc1 [Example 246, 1-methylethyl 2-(4-{[4-(acetylamino)phenyl]methyl}-1-piperazinyl)-4-methyl-3-pyridinecarboxylate]	4-4.99	4-4.99	–	–
CC(=O)Oc1ccc(CN2CCN(c3nccc(C)c3C(=O)OC(C)C)CC2)cc1 [Example 247, 1-methylethyl 2-(4-{[4-(acetyloxy)phenyl]methyl}-1-piperazinyl)-4-methyl-3-pyridinecarboxylate]	5-5.99	5-5.99	–	–
Cc1ccnc(N2CCN(Cc3ccc(-c4nnn[nH]4)cc3)CC2)c1C(=O)OC(C)C [Example 249, 1-methylethyl 4-methyl-2-(4-{[4-(1H-tetrazol-5-yl)phenyl]methyl}-1-piperazinyl)-3-pyridinecarboxylate]	–	–	inactive	inactive
COC(=O)c1c(CN2CCN(c3nccc(C)c3C(=O)OC(C)C)CC2)c(C)n(C)c1C [Example 252, 1-methylethyl 4-methyl-2-[4-({1,2,5-trimethyl-4-[(methyloxy)carbonyl]-1H-pyrrol-3-yl}methyl)-1-piperazinyl]-3-pyridinecarboxylate]	4-4.99	4-4.99	–	–
Cc1ccnc(N2CCN(Cc3cnc(N4CCCCC4)s3)CC2)c1C(=O)OC(C)C [Example 253, 1-methylethyl 4-methyl-2-(4-{[2-(1-piperidinyl)-1,3-thiazol-5-yl]methyl}-1-piperazinyl)-3-pyridinecarboxylate]	5-5.99	5-5.99	–	–
Cc1ccnc(N2CCN(Cc3cnc(N4CCOCC4)s3)CC2)c1C(=O)OC(C)C [Example 254, 1-methylethyl 4-methyl-2-(4-{[2-(4-morpholinyl)-1,3-thiazol-5-yl]methyl}-1-piperazinyl)-3-pyridinecarboxylate]	4-4.99	5-5.99	–	–
Cc1ccnc(N2CCN(Cc3cnc(N4CCN(C)CC4)s3)CC2)c1C(=O)OC(C)C [Example 255, 1-methylethyl 4-methyl-2-(4-{[2-(4-methyl-1-piperazinyl)-1,3-thiazol-5-yl]methyl}-1-piperazinyl)-3-pyridinecarboxylate]	5-5.99	5-5.99	–	–
CC(C)OC(=O)c1cccnc1N(C)[C@@H]1CCN(Cc2ccccc2Oc2ccc(S(N)(=O)=O)cc2)C1 [Example 259, 1-methylethyl 2-[{(3R)-1-[(2-{[4-(aminosulfonyl)phenyl]oxy}phenyl)methyl]-3-pyrrolidinyl}(methyl)amino]-3-pyridinecarboxylate]	5-5.99	5-5.99	–	–
CCN(Cc1cccc(Oc2ccccc2)c1)[C@@H]1CCN(c2nccc(C)c2C(=O)OC(C)C)C1 [Example 284, 1-methylethyl 2-[(3R)-3-(ethyl{[3-(phenyloxy)phenyl]methyl}amino)-1-pyrrolidinyl]-4-methyl-3-pyridinecarboxylate]	5-5.99	5-5.99	–	–
CCN(Cc1cccnc1)[C@@H]1CCN(c2nccc(C)c2C(=O)OC(C)C)C1 [Example 286, 1-methylethyl 2-{(3R)-3-[ethyl(3-pyridinylmethyl)amino]-1-pyrrolidinyl}-4-methyl-3-pyridinecarboxylate]	5-5.99	4-4.99	–	–
CCN(Cc1ccc(C)s1)[C@@H]1CCN(c2nccc(C)c2C(=O)OC(C)C)C1 [Example 288, 1-methylethyl 2-((3R)-3-{ethyl[(5-methyl-2-thienyl)methyl]amino}-1-pyrrolidinyl)-4-methyl-3-pyridinecarboxylate]	5-5.99	5-5.99	–	–

From patent publication US20140121213A1, “VOLTAGE-GATED SODIUM CHANNEL BLOCKERS” (priority 2011, published 2014)
